In patent publication US8097224B2, “Apparatuses and media for drug elution and methods for making and using them” (Medtronic MiniMed, Inc., priority 2007, dated 2012):
For at least one compound, name, drawing or mass did not settle the structure.

Assay: Elution in organo-aqueous medium (organics added to pH 6 PBS buffer)
Assay type: physicochemical
Details: after about 4 days

Compound: CC(=O)OCC(=O)[C@@]1(O)[C@H](C)C[C@H]2[C@@H]3CCC4=CC(=O)C=C[C@]4(C)[C@@]3(F)[C@@H](O)C[C@@]21C [Dexamethasone Acetate]
- elution of Dexamethasone Acetate (5% THF in pH 6 PBS buffer): 9%
- elution of Dexamethasone Acetate (20% IPA in pH 6 PBS buffer): 10%
